The other results are listed elsewhere or left out.
target: OsWRKY34 (Oryza sativa, UniProt Q0JBA9 1-250); assay: protein-binding microarray (RPBM); PBS, 2% BSA, 51.3 ng/ul salmon testes DNA, 50 uM zinc acetate, 200 nM TF, 25 C, 1 h; high values mean tight binding; conditions: protein: recombinant; tags: N-terminal polyhistidine and DsRed monomer fusion (pET32a); label: CyDye5-dUTP incorporated in the synthesized complementary strand; 3' TTTTT single-stranded linker to array surface; dsDNA, one strand shown
How it was run: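 Transcription factors were made in E. coli BL21-CodonPlus as N-terminal fusions to a polyhistidine tag and DsRed, then purified on Ni–NTA. After primer extension with Cy5-dUTP and blocking with 2% BSA, a custom Agilent array was exposed for 1 h at 25 °C to 200 nM protein in PBS, 2% BSA, salmon testes DNA and 50 µM zinc acetate. Washed arrays were scanned on an Axon 4000B, and the binding signal is per-feature fluorescence intensity in arbitrary units.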

Chains of the proteins cited; added tags and fusions are not shown.
UniProt Q0JBA9, entry or part of it: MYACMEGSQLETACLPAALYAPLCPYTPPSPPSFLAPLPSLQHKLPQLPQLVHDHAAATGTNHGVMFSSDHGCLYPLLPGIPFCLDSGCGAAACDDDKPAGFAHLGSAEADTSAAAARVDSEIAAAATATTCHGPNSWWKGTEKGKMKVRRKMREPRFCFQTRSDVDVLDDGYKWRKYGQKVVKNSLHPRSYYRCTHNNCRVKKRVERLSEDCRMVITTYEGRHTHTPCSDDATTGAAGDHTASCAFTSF

Sequence	binding signal
ACGATACTATTAGTCCCCGCCATTATCTAGCCCATGCGAACGGAGTCACCTAGTGCAG	8640 fluorescence intensity (a.u.)
TAATCTAACCCCATGTTAATGCTAGTAGCACTTTGATTTGCGGAGTCACCTAGTGCAG	10800 fluorescence intensity (a.u.)
TACAACTTTGTTGTTGTTGACTTTTTCAGTTGAAATTATTCGGAGTCACCTAGTGCAG	10800 fluorescence intensity (a.u.)
TTTTAATAGTTGACTCTCCCATGTTCTCTCAAACGTAAGCCGGAGTCACCTAGTGCAG	9240 fluorescence intensity (a.u.)
CATCCAACCATCACACACAGTTAGCATATCAGTAGTCGTTCGGAGTCACCTAGTGCAG	8210 fluorescence intensity (a.u.)
CTTTCGCCTCAGAGTCCCATCCAACCACCGCGTCCACGAACGGAGTCACCTAGTGCAG	9920 fluorescence intensity (a.u.)
TGACAAAACCGATGACCTCTGCTATTTGGACCGAAGCAAACGGAGTCACCTAGTGCAG	8960 fluorescence intensity (a.u.)
TGCCTTCTGATTCTGGATCCCTGATGTTATATGTGTGCACCGGAGTCACCTAGTGCAG	9310 fluorescence intensity (a.u.)
CTTTCCTACACACATAAACTTTCAATTTTTCCGTCGCATCCGGAGTCACCTAGTGCAG	8490 fluorescence intensity (a.u.)
ACCTGCTGCATTCCTTCTGTTGATTTTGATTCGCTCAACCCGGAGTCACCTAGTGCAG	8460 fluorescence intensity (a.u.)
TTTTCTATCACATCAAAATTTTCCTAGGCTGTGTTTAGTTCGGAGTCACCTAGTGCAG	8550 fluorescence intensity (a.u.)
GCATACTCGCTCCATTTCATATACTTTTTTTTAGTTTAACCGGAGTCACCTAGTGCAG	9420 fluorescence intensity (a.u.)
GTACTGTCATAATATCATAAACTTATACACATATACAGATCGGAGTCACCTAGTGCAG	8580 fluorescence intensity (a.u.)
GTTTTGTGTACTTCTTCCGTCCTAAAATATAGCAACTTTTCGGAGTCACCTAGTGCAG	11900 fluorescence intensity (a.u.)
TGACCACACATTGCATCCGTCACCACCTTCTTCTAATTAACGGAGTCACCTAGTGCAG	9320 fluorescence intensity (a.u.)
CGGCTAAACTCCCACGTGAACCAGACGCTGCACCAAAAACCGGAGTCACCTAGTGCAG	8430 fluorescence intensity (a.u.)
CCACTTTAGATCCCAAATTATATATGGTCGAGTTCTTTTCCGGAGTCACCTAGTGCAG	9470 fluorescence intensity (a.u.)
ATTGCTCTTCTGCACCATCAGCATCTCCTGCACCGCCGCGCGGAGTCACCTAGTGCAG	8340 fluorescence intensity (a.u.)
TCACGTATAGCCAGCGACAATATAAGCGTTCATTCACACTCGGAGTCACCTAGTGCAG	8060 fluorescence intensity (a.u.)
CATTGGTTACTCGCTAGTAGTTTAATTTTTTTTTCCGGAACGGAGTCACCTAGTGCAG	8470 fluorescence intensity (a.u.)
CTGTCACTCACTCACTCACCCGTTATTACATGGTTACAACCGGAGTCACCTAGTGCAG	9950 fluorescence intensity (a.u.)

A portion of the results above, for reference:
Sequence	binding signal
CATCCAACCATCACACACAGTTAGCATATCAGTAGTCGTTCGGAGTCACCTAGTGCAG	8210 fluorescence intensity (a.u.)
CTTTCGCCTCAGAGTCCCATCCAACCACCGCGTCCACGAACGGAGTCACCTAGTGCAG	9920 fluorescence intensity (a.u.)
TGACAAAACCGATGACCTCTGCTATTTGGACCGAAGCAAACGGAGTCACCTAGTGCAG	8960 fluorescence intensity (a.u.)
TGCCTTCTGATTCTGGATCCCTGATGTTATATGTGTGCACCGGAGTCACCTAGTGCAG	9310 fluorescence intensity (a.u.)
CTTTCCTACACACATAAACTTTCAATTTTTCCGTCGCATCCGGAGTCACCTAGTGCAG	8490 fluorescence intensity (a.u.)
ACCTGCTGCATTCCTTCTGTTGATTTTGATTCGCTCAACCCGGAGTCACCTAGTGCAG	8460 fluorescence intensity (a.u.)
TTTTCTATCACATCAAAATTTTCCTAGGCTGTGTTTAGTTCGGAGTCACCTAGTGCAG	8550 fluorescence intensity (a.u.)
GCATACTCGCTCCATTTCATATACTTTTTTTTAGTTTAACCGGAGTCACCTAGTGCAG	9420 fluorescence intensity (a.u.)
GTACTGTCATAATATCATAAACTTATACACATATACAGATCGGAGTCACCTAGTGCAG	8580 fluorescence intensity (a.u.)
GTTTTGTGTACTTCTTCCGTCCTAAAATATAGCAACTTTTCGGAGTCACCTAGTGCAG	11900 fluorescence intensity (a.u.)
TGACCACACATTGCATCCGTCACCACCTTCTTCTAATTAACGGAGTCACCTAGTGCAG	9320 fluorescence intensity (a.u.)
CGGCTAAACTCCCACGTGAACCAGACGCTGCACCAAAAACCGGAGTCACCTAGTGCAG	8430 fluorescence intensity (a.u.)
CCACTTTAGATCCCAAATTATATATGGTCGAGTTCTTTTCCGGAGTCACCTAGTGCAG	9470 fluorescence intensity (a.u.)
ATTGCTCTTCTGCACCATCAGCATCTCCTGCACCGCCGCGCGGAGTCACCTAGTGCAG	8340 fluorescence intensity (a.u.)
TCACGTATAGCCAGCGACAATATAAGCGTTCATTCACACTCGGAGTCACCTAGTGCAG	8060 fluorescence intensity (a.u.)

Later entries.

Sequence	binding signal
AACCAGCACCGATGTCGATTTCTGTAGTTCCCTTTGTTAACGGAGTCACCTAGTGCAG	9960 fluorescence intensity (a.u.)
TTTTGCCATATTTGTCACATCTGTTCACGCTGGATTTAAACGGAGTCACCTAGTGCAG	10100 fluorescence intensity (a.u.)
GATCCCCTTGCCTATGACTTTTGTAAATTTGAAAATTGTTCGGAGTCACCTAGTGCAG	8040 fluorescence intensity (a.u.)
TCGTACATACTTGCGTTTCTGCTTTCGACTTGTCGCCTCACGGAGTCACCTAGTGCAG	8540 fluorescence intensity (a.u.)
CTTGCATTGATGTCGTTTGACCCTATTGACCTCACTGGAGCGGAGTCACCTAGTGCAG	9880 fluorescence intensity (a.u.)
GCCTCGCACAGTCGCGTTCCACGAATGCTCACGCGCGCGCCGGAGTCACCTAGTGCAG	8820 fluorescence intensity (a.u.)
TCTAGTTACTACTTATCACATTCATCTCTTTTCATTCAAACGGAGTCACCTAGTGCAG	10000 fluorescence intensity (a.u.)
ATGAAACTCTTTCCTTCTCTCTCATCCCCATTTCATGCAACGGAGTCACCTAGTGCAG	9740 fluorescence intensity (a.u.)
TTGCACATCCACGCACTTTGGCCGCTTCTCCTCTACTACTCGGAGTCACCTAGTGCAG	11200 fluorescence intensity (a.u.)
GGCATACTACACCTACTCTATACAATTAAATGGTACTGTGCGGAGTCACCTAGTGCAG	8230 fluorescence intensity (a.u.)
CCACCCTCTCGATCCCCTGTGTGCCGCCACTGACCACCGACGGAGTCACCTAGTGCAG	8180 fluorescence intensity (a.u.)
AGGTGGTTGGTGAGGTTTGCTTTGCACGATCGAGTGAGGACGGAGTCACCTAGTGCAG	10500 fluorescence intensity (a.u.)
CCACCTCGATCTGTGCCGCCGTTGTTAGGGGCAGGGGCGGCGGAGTCACCTAGTGCAG	10100 fluorescence intensity (a.u.)
TGGTGTAGTGTGCCAATATTCTTTGCGACCTCCCAGTCAACGGAGTCACCTAGTGCAG	9290 fluorescence intensity (a.u.)
GCCCTATTCCATCGCTCAGTTGGCTCACCCTCTTCGACGACGGAGTCACCTAGTGCAG	8450 fluorescence intensity (a.u.)
GATAGAGTTGGGTAGTGGTGGTCAGATCTTATTCGTATATCGGAGTCACCTAGTGCAG	8040 fluorescence intensity (a.u.)
TTGGTACTGGTGATACTCGCCATTTTTTCTGTATTCCATGCGGAGTCACCTAGTGCAG	11900 fluorescence intensity (a.u.)
CACCACGTCCCATCCCGTCGCGTCGCCGCACATTCACCCCCGGAGTCACCTAGTGCAG	9490 fluorescence intensity (a.u.)
GAGCTTTTCATCCAGCCCTAGTCATGCCGCACTCCACAACCGGAGTCACCTAGTGCAG	8320 fluorescence intensity (a.u.)
CAGTTTTTGCTTGCAACGTTTGACCACTCGTCTTATTTAACGGAGTCACCTAGTGCAG	8910 fluorescence intensity (a.u.)
GCAAGAGAGAGATGACCGCCGCCGCCCGCCGTACTTTACACGGAGTCACCTAGTGCAG	8170 fluorescence intensity (a.u.)

Sequence	binding signal
CGCCGACCGGTACACCGCCCATGTGCCACAGCCCGCCCGCCGGAGTCACCTAGTGCAG	8510 fluorescence intensity (a.u.)
CTCTCTTCTTCTTCCTCGCTTTGCTTGGGTTGGGTTGGAGCGGAGTCACCTAGTGCAG	14800 fluorescence intensity (a.u.)
CATACTGGCCAAGATATGGTTTGGTTTGTTTATTTGATGTCGGAGTCACCTAGTGCAG	8690 fluorescence intensity (a.u.)
AGCTCGCTCGCTCTGGAAAGCATGCTTATGTCCATCACTACGGAGTCACCTAGTGCAG	8100 fluorescence intensity (a.u.)
GTGTGAATTGTGGGTGTCATCCAATGGGTGGAGGGGTTGCCGGAGTCACCTAGTGCAG	11400 fluorescence intensity (a.u.)
CCACCAGAGTCCACGAGTCATGACCACACATTGCATCCGTCGGAGTCACCTAGTGCAG	9990 fluorescence intensity (a.u.)
TGGCTAGAGTTAGACTCTCTGTTTGGATTGATTATTGGGACGGAGTCACCTAGTGCAG	8160 fluorescence intensity (a.u.)
ATCGATCCCTTGCCTTGCTCACGTACCGAGCTGCTTCAAGCGGAGTCACCTAGTGCAG	8530 fluorescence intensity (a.u.)
TCTCCTGGCCCAGCTCATACTTATTCTTTTCACAGGTTAGCGGAGTCACCTAGTGCAG	8820 fluorescence intensity (a.u.)
ACTTTATGTACTTCTAATATAATTATTTTCTACTTTTACACGGAGTCACCTAGTGCAG	8500 fluorescence intensity (a.u.)
TCTTTGTTAATTGTTACTGATTCATTTTGTTCCGTCCACACGGAGTCACCTAGTGCAG	10800 fluorescence intensity (a.u.)
TCAATCACTCTACCCATCGTCTTACTCCCTCTGTTTCAACCGGAGTCACCTAGTGCAG	9680 fluorescence intensity (a.u.)
ATAGATTGTGGGGCCCAGATGTTGGTGGTAGACGTGGTTTCGGAGTCACCTAGTGCAG	8280 fluorescence intensity (a.u.)
ATTGTGTAATACACACGAGTATTTACTAATCAAGAGGACCCGGAGTCACCTAGTGCAG	8260 fluorescence intensity (a.u.)
TTCTCCCCGACCTCCGCCATCCCCACACCCCACTGCTCCGCGGAGTCACCTAGTGCAG	8100 fluorescence intensity (a.u.)
TTGCTTTTGTGTTCGGTTTTTCTATTTTTTCTATTTTCTTCGGAGTCACCTAGTGCAG	13700 fluorescence intensity (a.u.)
TATTTTGGTTCAGGTAATTAGAAGTGTTGGTCAATGGTCACGGAGTCACCTAGTGCAG	8380 fluorescence intensity (a.u.)
CCGCCGCCTTTCCCGTCTCTCTCTCTACCTACACACTTTTCGGAGTCACCTAGTGCAG	9630 fluorescence intensity (a.u.)
TGCTGTTCGTCGCGCTCTAATATAATCTGCCAATGGATTTCGGAGTCACCTAGTGCAG	9830 fluorescence intensity (a.u.)
GCAAAGCTTTGATTCTCCTACTGATACATTGTTACCCACTCGGAGTCACCTAGTGCAG	9140 fluorescence intensity (a.u.)
GCCGTCGCCCCTCCTCCTGCTCCGGCCGCGCGCCGCTTGCCGGAGTCACCTAGTGCAG	8920 fluorescence intensity (a.u.)

Sequence	binding signal
GATATCTTGCGCGCCTCGTTGCATATTTCCAAAAAGGACACGGAGTCACCTAGTGCAG	8170 fluorescence intensity (a.u.)
TCTGCACTTATGCTATACGCTGCTTCTCTCCCGAAACCATCGGAGTCACCTAGTGCAG	8140 fluorescence intensity (a.u.)
GCTGGAGCGCCGCCGCAGCCCGCAGGTCGATGGGGAGGGGCGGAGTCACCTAGTGCAG	8100 fluorescence intensity (a.u.)
CACAGTTGCAGTCTCCATGGGGCTACCTCACTTTAATTACCGGAGTCACCTAGTGCAG	10100 fluorescence intensity (a.u.)
TATTTCATTATTTATTCACTTGCCACATTATTTTTCATTTCGGAGTCACCTAGTGCAG	9900 fluorescence intensity (a.u.)
TCGCTGATCTTCTCTCACTCACTCCGTCTCCCACAACCACCGGAGTCACCTAGTGCAG	8040 fluorescence intensity (a.u.)
TATAGTGTGAATTGTGTGAATCCCTGATTTGCTTGTTTGCCGGAGTCACCTAGTGCAG	8900 fluorescence intensity (a.u.)
TCTATGAAGACAGACGGGTGCTGTGTTGTTTTCTCTCTTTCGGAGTCACCTAGTGCAG	8110 fluorescence intensity (a.u.)
TCAACTCGAGGCTCCCAACCTTCGCTTCTTCGTTTCTCGCCGGAGTCACCTAGTGCAG	10600 fluorescence intensity (a.u.)
TATTTGCAGTAACTCTTTTGTGGATTTGTTTCCGTTCTGCCGGAGTCACCTAGTGCAG	8780 fluorescence intensity (a.u.)
CCTTTGTTTTCACTGGTGTACTAGGCTGGCCCATTCGCGGCGGAGTCACCTAGTGCAG	8080 fluorescence intensity (a.u.)
CCTGTGCTCTTCTGCTGGACTCCTCGTCCTGCCATGTAGCCGGAGTCACCTAGTGCAG	9750 fluorescence intensity (a.u.)
CTTGGCCCTTGTTGCACCTGCCCAATTGCACCAATCGTCTCGGAGTCACCTAGTGCAG	8900 fluorescence intensity (a.u.)
ACCATTTAAATTAATTATGTCTACCTACCTACTACATTATCGGAGTCACCTAGTGCAG	10200 fluorescence intensity (a.u.)
CGATCCCTAACATTGAGGAACGAGTCTCACGCATTCTCTCCGGAGTCACCTAGTGCAG	8100 fluorescence intensity (a.u.)
CTTGTTTTTATTTTGGCACTGCTTACAGTCTTACACTAATCGGAGTCACCTAGTGCAG	10500 fluorescence intensity (a.u.)
CATCCATTTTCTTGCTACAGTTATTAAGCGCATATCACCTCGGAGTCACCTAGTGCAG	9630 fluorescence intensity (a.u.)
TTCAGTTGGTCCAAATATCCTTTTATGTGACTTTCAATGACGGAGTCACCTAGTGCAG	8030 fluorescence intensity (a.u.)
TATAGTCCACTAAGTTCAACATGCTACCACGCCACATCATCGGAGTCACCTAGTGCAG	8400 fluorescence intensity (a.u.)
TAGTTTGCCTGCCATCATTTCTCTCTTAGCGACACCTTATCGGAGTCACCTAGTGCAG	8400 fluorescence intensity (a.u.)
AGTTGCTTATTTGGCCTGTTTTAGACTCTAAGACTATGTTCGGAGTCACCTAGTGCAG	8290 fluorescence intensity (a.u.)

Source: PMC7819943, “Rice protein-binding microarrays: a tool to detect cis-acting elements near promoter regions in rice”
